These are yes or no findings as the source states them, for the method shown. For part of these data: Binding seen in cells or lysates may run through a third protein. Some results given as binding are weak or reduced against the parent protein; the word gives no strength. For part of these data: Sequences can lack the tags named with a protein. One block for each molecule: values may come before it.
What was measured:
[1] = molecular target: T1, Hth (in the EMSA) (Drosophila) (UniProt O46339); assay: native gel or EMSA; EMSA in 20 μl with radiolabelled DllR^con (Dll^con) probe; Abd-B proteins in vitro translated, with Exd and Hth; the trimeric protein complex is seen on the DNA
T1 sequence: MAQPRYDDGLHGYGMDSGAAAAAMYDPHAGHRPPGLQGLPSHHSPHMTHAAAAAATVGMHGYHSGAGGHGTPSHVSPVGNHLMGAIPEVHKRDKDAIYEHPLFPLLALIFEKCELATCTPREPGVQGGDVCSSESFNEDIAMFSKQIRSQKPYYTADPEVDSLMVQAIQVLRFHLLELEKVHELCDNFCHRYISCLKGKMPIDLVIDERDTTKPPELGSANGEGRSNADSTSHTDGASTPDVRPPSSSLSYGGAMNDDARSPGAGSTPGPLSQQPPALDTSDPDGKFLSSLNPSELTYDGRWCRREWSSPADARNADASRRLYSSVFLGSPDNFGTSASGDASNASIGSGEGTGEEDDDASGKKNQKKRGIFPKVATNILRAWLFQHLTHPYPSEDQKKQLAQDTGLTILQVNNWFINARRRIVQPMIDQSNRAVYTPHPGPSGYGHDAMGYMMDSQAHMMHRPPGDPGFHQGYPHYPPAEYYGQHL

[2] = molecular target: T2, Exd (in the EMSA) (Drosophila) (UniProt P40427); assay: as above
T2 sequence: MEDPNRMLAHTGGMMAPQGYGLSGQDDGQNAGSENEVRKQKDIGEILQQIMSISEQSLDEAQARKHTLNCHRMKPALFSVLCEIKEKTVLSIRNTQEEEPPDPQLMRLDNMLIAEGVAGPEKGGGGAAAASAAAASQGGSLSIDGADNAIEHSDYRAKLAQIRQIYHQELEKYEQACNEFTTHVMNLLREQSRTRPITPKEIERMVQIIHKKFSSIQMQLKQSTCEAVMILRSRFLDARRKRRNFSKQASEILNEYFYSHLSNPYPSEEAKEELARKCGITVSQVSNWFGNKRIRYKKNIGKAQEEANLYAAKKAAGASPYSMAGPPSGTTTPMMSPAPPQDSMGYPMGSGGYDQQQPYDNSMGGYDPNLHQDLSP

[3] = molecular target: T1, Hth (in the EMSA) (Drosophila); assay: native gel or EMSA; EMSA in 20 μl with radiolabelled cycE probe; Abd-B proteins in vitro translated, with Exd and Hth; the trimeric protein complex is seen on the DNA
[4] = molecular target: T2, Exd (in the EMSA) (Drosophila); assay: as above
[5] = molecular target: T3, VN::Exd (Extradenticle fused to the N-terminal part of Venus) (Drosophila) (UniProt P40427); assay: split reporter; BiFC with Venus fragments, UAS-Abd-B::VC (or W>A) and UAS-VN::Exd co-expressed with pnr-Gal4/Gal80^ts in the dorsal pupal abdomen, shift 18°C to 29°C in third instar; signal in histoblasts
T3 sequence: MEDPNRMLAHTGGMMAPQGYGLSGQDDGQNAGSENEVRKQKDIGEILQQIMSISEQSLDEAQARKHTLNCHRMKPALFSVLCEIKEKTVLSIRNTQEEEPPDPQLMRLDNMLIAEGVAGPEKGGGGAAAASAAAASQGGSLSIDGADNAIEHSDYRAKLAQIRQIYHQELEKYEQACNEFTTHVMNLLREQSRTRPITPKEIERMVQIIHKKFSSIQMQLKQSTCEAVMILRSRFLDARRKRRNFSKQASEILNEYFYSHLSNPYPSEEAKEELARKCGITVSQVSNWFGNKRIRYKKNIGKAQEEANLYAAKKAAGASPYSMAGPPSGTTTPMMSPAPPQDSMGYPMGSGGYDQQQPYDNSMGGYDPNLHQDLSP

[6] = molecular target: T3, VN::Exd (Extradenticle fused to the N-terminal part of Venus) (Drosophila); assay: split reporter; same BiFC in the dorsal pupal abdomen, read in the polytene larval epidermal cells (LECs), which also express both fusion proteins
[7] = molecular target: T4, Flag::Hth (Homothorax, Flag-tagged) (Drosophila) (UniProt O46339); assay: co-IP; SF9 extracts with Flag::Hth, His::Exd and HA::Abd-B (wild type or W>A) mixed and incubated on anti-Flag resin; lysis solution 140 mM KCl, 5% glycerol, 2.5% MgCl2, 25 mM Hepes pH 7.8, 10 mM imidazole; Western blot by the tags
T4 sequence: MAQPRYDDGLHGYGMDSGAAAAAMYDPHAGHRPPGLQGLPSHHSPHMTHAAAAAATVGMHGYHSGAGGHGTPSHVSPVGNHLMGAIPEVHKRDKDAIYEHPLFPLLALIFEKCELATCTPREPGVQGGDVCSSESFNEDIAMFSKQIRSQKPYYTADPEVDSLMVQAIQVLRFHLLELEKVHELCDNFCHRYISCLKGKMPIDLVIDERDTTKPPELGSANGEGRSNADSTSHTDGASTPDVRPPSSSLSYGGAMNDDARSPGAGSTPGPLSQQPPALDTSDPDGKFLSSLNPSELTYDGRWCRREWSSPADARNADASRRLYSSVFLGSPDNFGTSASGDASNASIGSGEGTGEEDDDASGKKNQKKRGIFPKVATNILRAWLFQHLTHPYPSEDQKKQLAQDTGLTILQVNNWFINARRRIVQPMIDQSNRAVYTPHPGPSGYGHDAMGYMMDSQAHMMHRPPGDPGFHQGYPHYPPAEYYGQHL

[8] = molecular target: T4, Flag::Hth (Homothorax, Flag-tagged) (Drosophila); assay: co-IP; SF9 extracts with Flag::Hth and HA::Abd-B only, without Exd, on anti-Flag resin; Western blot by the tags

Molecule: HA::Abd-B (Abdominal-B, wild type, HA-tagged) (from UniProt P09087 1-493)
- binding [7]: binds
- binding [8]: binds

B1: His::Exd (Extradenticle, His-tagged) (protein, UniProt P40427 1-376)
chain: MEDPNRMLAHTGGMMAPQGYGLSGQDDGQNAGSENEVRKQKDIGEILQQIMSISEQSLDEAQARKHTLNCHRMKPALFSVLCEIKEKTVLSIRNTQEEEPPDPQLMRLDNMLIAEGVAGPEKGGGGAAAASAAAASQGGSLSIDGADNAIEHSDYRAKLAQIRQIYHQELEKYEQACNEFTTHVMNLLREQSRTRPITPKEIERMVQIIHKKFSSIQMQLKQSTCEAVMILRSRFLDARRKRRNFSKQASEILNEYFYSHLSNPYPSEEAKEELARKCGITVSQVSNWFGNKRIRYKKNIGKAQEEANLYAAKKAAGASPYSMAGPPSGTTTPMMSPAPPQDSMGYPMGSGGYDQQQPYDNSMGGYDPNLHQDLSP
- binding [7]: binds

Continued, in another order:

- binding [1]: binds
- binding [2]: binds
- binding [3]: binds
- binding [4]: binds
Molecule: Abd-B (in vitro translated, for EMSA) (from UniProt P09087 1-493)

- binding [5]: binds
Molecule: Abd-B::VC (Abdominal-B fused to the C-terminal part of Venus) (from UniProt P09087 1-493)
- binding [6]: no binding (condition: in larval epidermal cells (LECs))
